Measurements as given in PubChem BioAssay AID493014 (National Center for Advancing Translational Sciences (NCATS), 2011).
The list shows a part of the results. The main result of the screen is listed elsewhere. These columns were measured beside it and carry no call. Compounds called inactive in the main read-out are mostly missing here. Words in brackets tell the shape of the fitted curve; partial curves, single points and poor fits give uncertain potencies.

Assay: qHTS Assay to Find Inhibitors of Chronic Active B-Cell Receptor Signaling
Conditions: ABC-DLBCL IkBa-CBG/CBR reporter, luminescence ratio (green luciferase fused to IkBa over red control in TMD8 lymphoma cells), 4 h
In short: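 TMD8 ABC-DLBCL cells carrying doxycycline-inducible green luciferase fused to IkappaBalpha plus unfused red luciferase were exposed to compounds (up to 46 uM) for 4 hrs at 37C. Activity came from the overlap-corrected green/red luminescence ratio.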

[1] = measured here: CBR red luminescence, cell number
[2] = measured here: IkBa-CBG green luminescence

SMILES | AC50 [1] | AC50 [2]
COc1ccc(OC)c(S(=O)(=O)N2CCCCC2C(=O)N2CCN(c3ccccn3)CC2)c1 (configuration not stated) | 18.4 µM [rising, partial curve] | 
Cc1cccc(C)c1OCC(=O)Nc1ccccc1N1CCCCC1 | 17.8 µM [rising, partial curve] | 
O=C(c1ccc2c(c1)OCCO2)C1CCN(C(=O)Nc2ccc(F)cc2)CC1 | 2.51 µM [rising, partial curve, poor fit] | 
Nc1nnc(CC(=O)N2CCCCC2)s1 | 29.1 µM [rising, single point] | 
Cc1cc(C)cc(NS(=O)(=O)c2ccc3[nH]c(=O)[nH]c3c2)c1 | 4.11 µM [falling, single point] | 
Cc1cc(C(=O)NNC(=S)Nc2ccccc2C)cs1 | 2.06 µM [falling, partial curve] | 
COC(=O)C1=C(C)N(c2ccccc2)/C(=C/c2cccs2)C1=O | 35.5 µM [rising, single point] | 
CCOC(=O)/C=C/C(=O)OCC(=O)Nc1cccc(Br)c1 | 28.2 µM [rising, single point] | 
Cc1noc(C)c1COc1cccc(C(=O)Oc2ccc3c(c2)OCO3)c1 | 7.31 µM [rising, partial curve, poor fit] | 
CS(=O)(=O)NCCCNc1c(Cl)cccc1[N+](=O)[O-] | 23.1 µM [rising, single point] | 
CN1CCN(c2nc(C#N)cc(-c3ccccc3)n2)CC1 | 2.24 µM [rising, partial curve, poor fit] | 
N/C(=N\OC(=O)COc1ccc(Cl)cc1)c1cccnc1 | 0.58 µM [rising, full curve] | 
CCOC(=O)C1CCN(Cc2ccc(Cl)c(Cl)c2)CC1 | 13 µM [rising, partial curve, poor fit] | 
Cc1cc2nc(SC(C)C(=O)O)[nH]c2cc1C (configuration not stated) | 12.6 µM [rising, single point] | 
O=S(=O)(Nc1nc(-c2ccccc2)cs1)c1cc(Cl)ccc1Cl | 35.5 µM [rising, single point] | 
O=C(Nc1ccccc1Cl)ON=C1c2ccccc2-c2ccccc21 | 39.8 µM [falling, partial curve, poor fit] | 
Nc1nc(SCC(=O)Nc2cccc(S(=O)(=O)N3CCCCCC3)c2)n[nH]1 | 35.5 µM [falling, single point] | 
CCc1ccc(C(=O)CN2CCSC2=N)cc1 | 4.61 µM [rising, single point] | 
COC(=O)c1ccc(Sc2ccccc2NS(=O)(=O)c2ccc(NC(C)=O)cc2)nc1 | 29.1 µM [falling, partial curve, poor fit] | 
CC(=O)Nc1nc2cc(N)ccc2s1 | 18.4 µM [rising, single point] | 
CC(C)Oc1ccc(OCCn2c(S(=O)(=O)O)nc3c(N)ncnc32)cc1 | 3.98 µM [falling, single point] | 
COc1cc2cnc(-c3ccccc3)c(-c3cc(OC)c(OC)c(OC)c3)c2cc1OC | 29.1 µM [falling, single point] | 

SMILES | AC50 [1] | AC50 [2]
O=C(O)c1cccc(NC(=O)C2CCCO2)c1 (configuration not stated) | 5.17 µM [falling, single point] | 
CC(C)C(=O)Nc1cccc(C(=O)Nc2nnc(C(C)(C)C)s2)c1 | 3.98 µM [rising, partial curve, poor fit] | 
COC(=O)Nc1sc2c(c1C(=O)NCc1ccco1)CCCC2 | 17.8 µM [falling, partial curve, poor fit] | 
O=C(Cc1ccccc1)NC(=S)Nc1ccc2oc(-c3ccccc3)nc2c1 | 0.092 µM [rising, full curve, poor fit] | 
CCn1c(SCC(=O)NCc2ccco2)nnc1-c1ccc(N)cc1 | 35.5 µM [rising, single point] | 
NC(=O)N/N=C/c1ccc(-c2ccc([N+](=O)[O-])cc2)o1 | 35.5 µM [rising, single point] | 
CC12CCC(C/C1=N\OC(=O)c1ccc(F)cc1)C2(C)C (configuration not stated) | 4.11 µM [rising, full curve, poor fit] | 
COC(=O)c1ccc(C(=O)OC)c(NC(=O)CN(c2ccccc2)S(=O)(=O)N(C)C)c1 | 1.41 µM [falling, full curve, poor fit] | 
COCCCN(C(=O)CSCC(=O)Nc1cccc(C)c1)c1c(N)n(Cc2ccccc2)c(=O)[nH]c1=O | 6.51 µM [rising, single point] | 
CCNC(=O)c1sc2cc(C)ccc2c1Cl | 3.98 µM [rising, full curve] | 12.6 µM [falling, partial curve, poor fit]
CCc1ccc(NC(=O)c2nc(S(=O)(=O)Cc3ccccc3)ncc2Cl)cc1 | 3.98 µM [falling, full curve] | 
O=C(CSc1nnc(COc2ccc(Br)cc2)o1)N1CCOCC1 | 1.58 µM [falling, partial curve] | 
C=C(C)n1c(=O)n(Cc2ccc(C)cc2)c2ccccc21 | 35.5 µM [rising, single point] | 
CCOC(=O)c1[nH]c2cc(OC)c(OC)cc2c1NC(=O)C(C)N1CCN(Cc2ccccc2)CC1 (configuration not stated) | 0.13 µM [rising, partial curve, poor fit] | 
CCC(=O)NCCc1nc2cc(NC(=O)c3cccc(Br)c3)ccc2n1C | 7.08 µM [falling, partial curve] | 
COc1cccc(NC(=O)C2CCCN2C(=O)Nc2ccccc2F)c1 (configuration not stated) | 35.5 µM [rising, single point] | 
O=[N+]([O-])c1ccc(Cl)cc1CN1CCCCCC1 | 12.6 µM [falling, partial curve] | 
Cc1ccc(/C=N/n2c(-c3cccc(Cl)c3)n[nH]c2=S)o1 | 0.316 µM [falling, full curve, poor fit] | 
O=C(Nc1ccn(Cc2c(F)c(F)cc(F)c2F)n1)c1ccc(COc2cc(Cl)ccc2Cl)o1 | 9.2 µM [rising, partial curve, poor fit] | 
COC(=O)CN(C#N)c1nc(N(C)C)nc(N(C)C)n1 | 2.82 µM [falling, partial curve, poor fit] | 
Cc1ccc(C(=O)Nc2ccc3c(c2)nc2n3CCSC2)cc1 | 35.5 µM [falling, single point] | 
COc1ccc(C2=NN(C(=O)CSc3nc4ccccc4s3)C(c3ccc(F)cc3)C2)cc1 (configuration not stated) | 14.6 µM [rising, partial curve] | 

Reprinted at random: 4 records from the list
SMILES | AC50 [1] | AC50 [2]
COC(=O)C1=C(C)N(c2ccccc2)/C(=C/c2cccs2)C1=O | 35.5 µM [rising, single point] | 
COC(=O)c1ccc(Sc2ccccc2NS(=O)(=O)c2ccc(NC(C)=O)cc2)nc1 | 29.1 µM [falling, partial curve, poor fit] | 
Cc1cc2nc(SC(C)C(=O)O)[nH]c2cc1C (configuration not stated) | 12.6 µM [rising, single point] | 
C=C(C)n1c(=O)n(Cc2ccc(C)cc2)c2ccccc21 | 35.5 µM [rising, single point] | 

(next part)

SMILES | AC50 [1] | AC50 [2]
CCOc1ccc(OCC)c(-c2c(=O)n(OCc3ccccc3Br)c3ccccc3[n+]2[O-])c1 | 35.5 µM [falling, single point] | 
Cc1nc(NC(=O)c2ccc(F)cc2)sc1C(=O)Nc1ccc2c(c1)CCC2 | 8.91 µM [falling, partial curve] | 
C=C(C)COc1ccc(-c2[nH]ncc2-c2ccccc2)c(O)c1 | 22.4 µM [rising, single point] | 
COc1cc(-c2nc(-c3ccc(-c4ccccc4)nc3OC)no2)cc(OC)c1OC | 11.2 µM [rising, partial curve, poor fit] | 
O=S(=O)(c1ccc(F)cc1)c1nc(-c2ccco2)oc1Nc1ccc(F)cc1 | 8.2 µM [falling, partial curve, poor fit] | 
COC(=O)CCNS(=O)(=O)c1ccc2ccccc2c1 | 9.2 µM [rising, partial curve, poor fit] | 
O=c1[nH]c(-c2cccnc2)nc2ccccc12 | 7.31 µM [rising, partial curve, poor fit] | 
Oc1c(CN2CCCC(C(F)(F)F)C2)cc(Cl)c2ccccc12 (configuration not stated) | 25.1 µM [falling, single point] | 
CCC1CCCCN1C(=O)c1c[nH]c2ccc(S(=O)(=O)N(C)c3ccc(Cl)cc3)cc2c1=O (configuration not stated) | 9.2 µM [falling, single point] | 
C=C(C)COc1ccc(-c2[nH]ncc2Oc2cccc(OC)c2)c(O)c1 | 2.82 µM [rising, full curve, poor fit] | 
CCC1CCCCN1C(=S)NC(=O)c1cccc([N+](=O)[O-])c1 (configuration not stated) | 0.794 µM [rising, full curve, poor fit] | 
COc1ccc(/C=C/C(=O)Nc2ccc(-n3nncc3-c3ccc(OC)c(OC)c3)cc2)cc1OC | 18.4 µM [rising, partial curve] | 18.4 µM [falling, partial curve]
O=Cc1cn(-c2ccccc2)nc1-c1ccc2c(c1)OCCO2 | 0.517 µM [rising, full curve] | 
Clc1ccc(-n2ncc3c(NC4CCCC4)ncnc32)cc1 | 7.08 µM [falling, partial curve] | 
CC(C)CC(NC(=O)c1ccccc1NC(=O)c1ccccc1)C(=O)O (configuration not stated) | 35.5 µM [falling, single point] | 
Cc1cc(C(c2ccc(C)o2)c2ccc(C)o2)c(O)c([N+](=O)[O-])c1 | 20.6 µM [falling, single point] | 
S=C(NCCc1ccccc1)Nc1ccccn1 | 13 µM [rising, partial curve, poor fit] | 
O=C(OCc1c(Cl)cccc1Cl)c1cccnc1 | 4.11 µM [rising, full curve, poor fit] | 
NS(=O)(=O)c1cc2c(cc1Cl)NC(CSCc1ccccc1)=NS2(=O)=O | 23.1 µM [rising, single point] | 
Cc1csc(NC(=O)c2cccn2C)n1 | 3.16 µM [rising, single point] | 7.08 µM [rising, partial curve, poor fit]
